The record followed here is patent US20240307372A1, “COMPOSITIONS AND METHODS TO IMPROVE BENEFIT OF SUBOPTIMALLY ADMINISTERED THERAPEUCTICS FOR THE TREATMENT OF BENIGN AND NEOPLASTIC DISEASES, INFECTIONS, INFLAMMATORY, METABOLIC AND IMMUNOLOGIAL DISEASES” (priority 2023, published 2024).

This data set relates to K562 cells. In words: Protein concentration in K562 cell lysate after Tetrandrine exposure (BCA protein assay). The conditions noted are these: 24 hours. Type of data set: cell-based, human.

Turning to “6,6′,7,12-tetramethoxy-2,2′-dimethyl-berbaman [ES-3000]”, the “Protein Recovered” value runs as follows: (0.1 μM) 1.1 mg; (1 μM) 1.1 mg; (5 μM) 1.0 mg; (10 μM) 1.1 mg; (20 μM) 1.0 mg; (40 μM) 0.9 mg.
